Results deposited as PubChem BioAssay AID504804 (Drosophila RNAi Screening Center, 2011).
Screen: 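dsRNAs that improve Kc cell survival under doxorubicin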 (primary screen). Cell system: Drosophila Kc cells. Knock-down reagent: long dsRNA against Drosophila genes, 0.5 µg dsRNA per well. Time to read-out: 96 h (48 h knock-down, then 48 h drug). Treatment: doxorubicin 5 µg/ml for 48 h, added 48 h after dsRNA. Measurement: 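Luminescent ATP counts per replicate, not normalised, reflecting viable cells after 48 h dsRNA knock-down followed by 48 h of 5 µg/ml doxorubicin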. Reading the numbers: raw ATP luminescence: higher = more viable cells, protection from doxorubicin. Rule for the call: 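Active when both duplicate wells lie at least 2 SD above the plate mean and protection is confirmed by rescreening and independent dsRNAs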.
The deposit covers about 19,000 reagents; below is a random part of those with a known target gene and a result. Over the whole deposit, 47 (0.25%) got an active call. 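Signals are raw, not normalised; exact z-scores behind calls not deposited; actives needed confirmation, so some wells reaching 2 SD are inactive.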 Names joined by + are all predicted targets of the reagent.

no.	target gene	DRSC id	raw ATP luminescence, replicate 1	raw ATP luminescence, replicate 2	Call
1	Ilp8	DRSC10076	58193	57123	inactive
2	CG13606	DRSC14609	87680	82020	inactive
3	twz	DRSC04069	46340	62257	inactive
4	Meltrin	DRSC16274	82203	57953	inactive
5	E(Pc)	DRSC05281	53103	60067	inactive
6	Cib2	DRSC04535	61467	54967	inactive
7	CG11380	DRSC18632	18980	19850	inactive
8	CG15047	DRSC19623	2.38e5	2.20e5	inactive
9	CG14417	DRSC18638	63090	43970	inactive
10	TwdlF	DRSC12225	32517	25530	inactive
11	Wee1	DRSC03635	32440	36700	inactive
12	wuho	DRSC18101	38380	46260	inactive
13	onecut	DRSC17175	47820	54960	inactive
14	eIF3l	DRSC10530	68893	70177	inactive
15	Mst89B	DRSC16748	53860	81290	inactive
16	SIFa	DRSC04480	38793	41770	inactive
17	Acp26Aa	DRSC01855	28713	39100	inactive
18	RpS14b	DRSC18711	22120	24210	inactive
19	Mp	DRSC10193	50117	42630	inactive
20	Mp	DRSC11029	75843	94600	inactive
21	Mp	DRSC11030	81410	90823	inactive
22	CG31957	DRSC00207	2.82e5	3.37e5	inactive
23	Hsc70-2	DRSC16710	71080	67880	inactive
24	CG32486	DRSC08413	34413	49913	inactive
25	CG17486	DRSC07752	61347	58537	inactive
26	fkh	DRSC16949	67450	44860	inactive
27	CG31463	DRSC14346	58327	51793	inactive
28	CG34267	DRSC07881	1.92e5	1.59e5	inactive
29	Suv3	DRSC12335	38883	34223	inactive
30	CG9117	DRSC03141	21910	22990	inactive
31	CG16952	DRSC19759	3.54e5	3.07e5	inactive
32	CG15865	DRSC19733	4.07e5	3.21e5	inactive
33	y	DRSC18853	48470	59860	inactive
34	Skp2	DRSC12329	51490	33557	inactive
35	salm	DRSC03606	40187	82040	inactive
36	CG9289	DRSC03187	37423	55253	inactive
37	bcd + CR14578	DRSC20984	2.84e5	2.44e5	inactive
38	CG4702	DRSC15626	95643	35650	inactive
39	Nufip	DRSC10397	23533	20117	inactive
40	ND-13B	DRSC10643	78490	68783	inactive
41	Smn	DRSC10223	29460	23413	inactive
42	CG17221	DRSC00487	23780	27203	inactive
43	Art7	DRSC04588	36913	49433	inactive
44	exd	DRSC20330	4.33e5	3.39e5	inactive
45	CG3097	DRSC18275	34470	41160	inactive
46	CG17917	DRSC12570	54960	48450	inactive
47	Smyd4-2	DRSC10126	63390	60233	inactive
48	Inos	DRSC07655	43243	74150	inactive
49	CG6015	DRSC15948	34497	43617	inactive
50	Srg1	DRSC14640	60540	63000	inactive
51	CG10993	DRSC19362	3.02e5	3.44e5	inactive
52	CG32374	DRSC10986	86730	81607	inactive
53	CG5078	DRSC11762	71277	71393	inactive
54	SamDC	DRSC03429	91403	60687	inactive
55	Sirt4	DRSC18290	47350	58840	inactive
56	Est-P	DRSC11163	79720	71480	inactive
57	CG30379	DRSC05070	88430	90370	inactive
58	smid	DRSC11398	93317	95973	inactive
59	Aldh-III	DRSC06047	57320	42177	inactive
60	yellow-f2	DRSC16372	58967	21377	inactive
61	Lnpk	DRSC07254	92583	51803	inactive
62	CG8197	DRSC07105	52140	75187	inactive
63	Cadps	DRSC21057	3.80e5	3.44e5	inactive
64	HLH4C	DRSC18670	49530	48890	inactive
65	CG6481	DRSC19995	2.15e5	2.38e5	inactive
66	Exo84	DRSC15965	45420	48970	inactive
67	CG11983	DRSC14458	54637	58710	inactive
68	CG9263	DRSC03176	77307	84760	inactive
69	Ank2	DRSC08894	1.51e5	1.67e5	inactive
70	Ank2	DRSC09666	1.01e5	84667	inactive
71	Ank2	DRSC10338	95053	98580	inactive
72	Ank2	DRSC11278	98743	93260	inactive
73	GatB	DRSC15807	72760	1.08e5	inactive
74	Tsp39D	DRSC03099	51113	55077	inactive
75	alphaTub84D	DRSC12623	57003	61267	inactive
76	CG32719	DRSC17525	2.56e5	2.49e5	inactive
77	nyo	DRSC15029	45670	48400	inactive
78	nyo	DRSC15030	39690	43850	inactive
79	CG5321	DRSC19940	4.12e5	3.47e5	inactive
80	Charon	DRSC00679	90280	60720	inactive
81	BthD	DRSC19395	3.14e5	3.12e5	inactive
82	CG16786	DRSC04281	61173	46403	inactive
83	CG5447	DRSC15801	66640	56000	inactive
84	mab-21	DRSC18791	47120	46560	inactive

An excerpt from the list above:
no.	target gene	DRSC id	raw ATP luminescence, replicate 1	raw ATP luminescence, replicate 2	Call
47	Smyd4-2	DRSC10126	63390	60233	inactive
48	Inos	DRSC07655	43243	74150	inactive
49	CG6015	DRSC15948	34497	43617	inactive
50	Srg1	DRSC14640	60540	63000	inactive
51	CG10993	DRSC19362	3.02e5	3.44e5	inactive
52	CG32374	DRSC10986	86730	81607	inactive
53	CG5078	DRSC11762	71277	71393	inactive
54	SamDC	DRSC03429	91403	60687	inactive
55	Sirt4	DRSC18290	47350	58840	inactive
56	Est-P	DRSC11163	79720	71480	inactive
